18 sequences from article PMC11773815 can be followed below.

Chains of the proteins cited; added tags and fusions are not shown. Chains listed by the source or under a name are the forms on record and can include a tag or linker.
MdH1.1 (Malus domestica), one chain, as listed by the source: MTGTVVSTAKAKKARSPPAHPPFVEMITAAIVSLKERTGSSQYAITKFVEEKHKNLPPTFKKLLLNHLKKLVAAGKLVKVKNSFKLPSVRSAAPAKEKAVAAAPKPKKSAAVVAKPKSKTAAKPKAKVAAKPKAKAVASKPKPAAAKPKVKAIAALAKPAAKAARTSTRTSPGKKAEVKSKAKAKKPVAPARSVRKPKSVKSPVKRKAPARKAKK

For at least one entry, the source does not settle the construct or the ends of the probe. A negative result means that nothing was seen under these conditions.

One series relates to MdMYB73 (Malus domestica). Nature of the series: EMSA. Conditions: EMSA: LightShift kit binding buffer (10x stock), 1 ug/uL poly(dI-dC), 400 fmol biotin probe in 20 uL, room temperature 20 min, 6.5% native PAGE; salt and pH not stated; recombinant protein; protein details: His (pET-32a-c); label: biotin.
On to “CTAAAATCCATCAACTAAAAAAAAAGTTACACCCATT (double strand) [MdH1.1-2m]”, for which the binding result was “no binding”.

In the case of “GTACAATGACGAGAATTATAAAAAAACATTCTTTTATC (double strand) [MdH1.1-4m]”, the binding result is listed as “no binding”. Regarding “GTACAATGACGAGAATTATAACCATTCATTCTTTTATC (double strand) [MdH1.1-4]”, the binding result was “binds”. The same measure, in the same setting: as for “TGATTCTGCTTCCGAGTTAACTGAGTCAAACCGC (double strand) [MdH1.1-1]”, the entry is “binds”; as for “AATTTTCATGTAATGAACAGTTGTTTTAGAAGAAAATG (double strand) [MdH1.1-5]”, “binds”. The same measure, in the same setting: the entry for “TGATTCTGCTTCCGAGTAAAAAAAGTCAAACCGC (double strand) [MdH1.1-1m]” is “no binding”. On the same count and under the same terms, as for “CAGAATTTCACGATTCTTTAACCATTTCACTCCCCTG (double strand) [MdH1.1-3]”, the entry is “binds”.

For the sequence “CAGAATTTCACGATTCTTAAAAAATTTCACTCCCCTG (double strand) [MdH1.1-3m]”, the binding result was “no binding”. Still for that read-out and setting: as for “CTAAAATCCATCAACTACAACCAAAGTTACACCCATT (double strand) [MdH1.1-2]”, the entry is “binds”.

Regarding “AATTTTCATGTAATGAAAAAAAATTTTAGAAGAAAATG (double strand) [MdH1.1-5m]”, the binding result is reported as “no binding”.

The next series deals with MdH1.1 (Malus domestica). The series can be described thus: EMSA. Conditions: EMSA: LightShift kit binding buffer (10x stock), 1 ug/uL poly(dI-dC), 400 fmol biotin probe in 20 uL, room temperature 20 min, 6.5% native PAGE; salt and pH not stated; recombinant protein; protein details: His (pET-32a-c); label: biotin.
Consider “TTTATAACCGGCATTACGCGCGCTCTTAAGATGT (double strand) [MdMYB73-3 (T3)]”, for which the binding result was “binds”. Turning to “TTAATCTGATTATTATCTGTAAAAAAAATACTTTTTTT (double strand) [MdMYB73-2 mutant (mT2)]”, the binding result is recorded as “no binding”.

With “CTCAATATATCGGGGGAAAAAAAAAATGGTAAATGAAC (double strand) [MdMYB73-1 mutant (mT1)]”, the binding result is given as “no binding”.

For “CTGCTGATTCTGTCTCTTTCCCGAGAAAAACCCAG (double strand) [MdCIbHLH1 probe]”, the binding result is on record as “binds”. For the sequence “CTCAATATATCGGGGGAAGCCCGAAATGGTAAATGAAC (double strand) [MdMYB73-1 (T1)]”, the binding result is on record as “binds”.

Consider “ACACGTTGTGAGACAATGGCGCGACTTGAATTGAG (double strand) [MdPH5 probe]”, for which the binding result is recorded as “binds”. Still for that read-out and setting: as for “TTTATAACCGGCATAAAAAAAAAACTTAAGATGT (double strand) [MdMYB73-3 mutant (mT3)]”, the entry is “no binding”.

Take “TTAATCTGATTATTATCTGTGTGCGAAATACTTTTTTT (double strand) [MdMYB73-2 (T2)]”: the binding result is “binds”.
